Data published in publication doi:10.1101/2025.09.30.25337017.
These are yes or no findings as the source states them, for the method shown. In cells and extracts the contact can be indirect. Some results given as binding are weak or reduced against the parent protein; the word gives no strength.

The chains behind the UniProt entries cited, without tags or fusion partners. Residues count along the entry.
UniProt P06733: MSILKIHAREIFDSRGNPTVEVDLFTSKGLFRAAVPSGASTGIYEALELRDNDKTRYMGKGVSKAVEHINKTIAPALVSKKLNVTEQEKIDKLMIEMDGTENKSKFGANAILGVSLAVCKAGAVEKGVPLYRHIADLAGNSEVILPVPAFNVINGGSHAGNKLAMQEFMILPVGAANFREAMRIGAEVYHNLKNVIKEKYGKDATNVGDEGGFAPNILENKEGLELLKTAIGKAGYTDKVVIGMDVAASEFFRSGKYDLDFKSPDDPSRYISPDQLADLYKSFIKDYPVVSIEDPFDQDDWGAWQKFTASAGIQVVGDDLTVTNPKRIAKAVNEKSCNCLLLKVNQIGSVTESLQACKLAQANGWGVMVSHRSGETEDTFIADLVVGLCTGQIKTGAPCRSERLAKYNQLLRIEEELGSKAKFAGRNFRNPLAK
UniProt P06731, residues 35-685: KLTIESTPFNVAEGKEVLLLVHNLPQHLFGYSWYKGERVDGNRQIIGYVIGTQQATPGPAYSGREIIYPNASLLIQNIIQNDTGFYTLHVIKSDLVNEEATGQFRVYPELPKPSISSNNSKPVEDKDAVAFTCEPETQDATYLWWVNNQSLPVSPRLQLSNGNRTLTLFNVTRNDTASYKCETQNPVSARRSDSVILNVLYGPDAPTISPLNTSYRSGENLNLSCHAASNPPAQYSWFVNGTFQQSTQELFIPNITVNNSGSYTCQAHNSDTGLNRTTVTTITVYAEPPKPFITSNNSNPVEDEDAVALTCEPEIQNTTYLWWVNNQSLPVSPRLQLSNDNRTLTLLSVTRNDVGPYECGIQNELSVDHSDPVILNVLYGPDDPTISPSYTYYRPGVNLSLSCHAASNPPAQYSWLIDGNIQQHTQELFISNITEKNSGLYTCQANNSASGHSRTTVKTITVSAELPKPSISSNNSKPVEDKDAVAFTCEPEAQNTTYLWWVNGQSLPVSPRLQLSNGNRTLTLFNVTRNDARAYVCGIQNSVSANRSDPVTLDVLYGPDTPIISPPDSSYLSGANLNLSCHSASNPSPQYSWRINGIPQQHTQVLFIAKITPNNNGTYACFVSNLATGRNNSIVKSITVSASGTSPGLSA
UniProt P09104: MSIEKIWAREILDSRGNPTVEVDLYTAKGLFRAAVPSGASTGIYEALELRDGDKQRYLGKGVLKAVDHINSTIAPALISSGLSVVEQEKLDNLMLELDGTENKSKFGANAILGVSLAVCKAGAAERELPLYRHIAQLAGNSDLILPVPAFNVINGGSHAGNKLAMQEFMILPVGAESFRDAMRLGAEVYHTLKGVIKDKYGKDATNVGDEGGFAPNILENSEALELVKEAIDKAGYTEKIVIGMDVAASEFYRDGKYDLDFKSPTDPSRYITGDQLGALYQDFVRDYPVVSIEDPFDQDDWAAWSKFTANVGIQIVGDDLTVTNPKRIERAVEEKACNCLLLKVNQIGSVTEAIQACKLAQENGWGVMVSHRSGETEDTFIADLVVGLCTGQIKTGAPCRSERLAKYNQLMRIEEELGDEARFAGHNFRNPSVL

T1: HSPA13 (UniProt P48723)
T1 sequence: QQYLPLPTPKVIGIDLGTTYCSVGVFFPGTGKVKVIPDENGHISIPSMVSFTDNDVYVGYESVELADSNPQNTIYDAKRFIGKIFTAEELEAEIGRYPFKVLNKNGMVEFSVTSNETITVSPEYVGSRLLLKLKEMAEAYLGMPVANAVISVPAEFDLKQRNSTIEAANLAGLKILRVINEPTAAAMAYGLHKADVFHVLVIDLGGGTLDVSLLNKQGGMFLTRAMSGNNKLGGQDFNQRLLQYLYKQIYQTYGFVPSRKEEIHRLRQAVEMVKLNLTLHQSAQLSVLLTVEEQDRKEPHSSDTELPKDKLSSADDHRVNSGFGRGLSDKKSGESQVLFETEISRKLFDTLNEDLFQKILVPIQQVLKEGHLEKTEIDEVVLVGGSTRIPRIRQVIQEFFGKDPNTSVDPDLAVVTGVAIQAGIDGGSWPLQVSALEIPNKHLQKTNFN

B1: GPC1 (protein, UniProt P35052 24-530)
chain: DPASKSRSCGEVRQIYGAKGFSLSDVPQAEISGEHLRICPQGYTCCTSEMEENLANRSHAELETALRDSSRVLQAMLATQLRSFDDHFQHLLNDSERTLQATFPGAFGELYTQNARAFRDLYSELRLYYRGANLHLEETLAEFWARLLERLFKQLHPQLLLPDDYLDCLGKQAEALRPFGEAPRELRLRATRAFVAARSFVQGLGVASDVVRKVAQVPLGPECSRAVMKLVYCAHCLGVPGARPCPDYCRNVLKGCLANQADLDAEWRNLLDSMVLITDKFWGTSGVESVIGSVHTWLAEAINALQDNRDTLTAKVIQGCGNPKVNPQGPGPEEKRRRGKLAPRERPPSGTLEKLVSEAKAQLRDVQDFWISLPGTLCSEKMALSTASDDRCWNGMARGRYLPEVMGDGLANQINNPEVEVDITKPDMTIRQQIMQLKIMTNRLRSAYNGNDVDFQDASDDGSGSGSGDGCLDDLCSRKVSRKSSSSRTPLTHALPGLSEQEGQKTS
B2: transforming growth factor beta induced (TGFBI) (protein, UniProt Q15582 24-683)
chain: GPAKSPYQLVLQHSRLRGRQHGPNVCAVQKVIGTNRKYFTNCKQWYQRKICGKSTVISYECCPGYEKVPGEKGCPAALPLSNLYETLGVVGSTTTQLYTDRTEKLRPEMEGPGSFTIFAPSNEAWASLPAEVLDSLVSNVNIELLNALRYHMVGRRVLTDELKHGMTLTSMYQNSNIQIHHYPNGIVTVNCARLLKADHHATNGVVHLIDKVISTITNNIQQIIEIEDTFETLRAAVAASGLNTMLEGNGQYTLLAPTNEAFEKIPSETLNRILGDPEALRDLLNNHILKSAMCAEAIVAGLSVETLEGTTLEVGCSGDMLTINGKAIISNKDILATNGVIHYIDELLIPDSAKTLFELAAESDVSTAIDLFRQAGLGNHLSGSERLTLLAPLNSVFKDGTPPIDAHTRNLLRNHIIKDQLASKYLYHGQTLETLGGKKLRVFVYRNSLCIENSCIAAHDKRGRYGTLFTMDRVLTPPMGTVMDVLKGDNRFSMLVAAIQSAGLTETLNREGVYTVFAPTNEAFRALPPRERSRLLGDAKELANILKYHIGDEILVSGGIGALVRLKSLQGDKLEVSLKNNVVSVNKEPVAEPDIMATNGVVHVITNVLQPPANRPQERGDELADSALEIFKQASAFSRASQRSVRLAPVYQKLLERMKH

Target: T1, HSPA13
Assay: co-IP

binding, binds:
ENO1 (from UniProt P06733 1-434)
CEACAM5 (CEA) (from UniProt P06731 35-685)
ENO2 (from UniProt P09104 1-434)
B1
B2
